These are yes or no findings as the source states them, for the method shown. Binding seen in cells or lysates may run through a third protein. A result given as binding can be weak or reduced; the word gives no strength.
Target: Flag-tagged EZH2 (UniProt Q15910)
Assay: co-IP; transiently transfected HEK-293T cells (Myc-USP22 or its mutants with FLAG-EZH2), immunoblot

By UniProt entry, the sequences of proteins in these tests, tags left out. Where a name states a change or a piece, a line headed by the entry shows the natural chain unless it says otherwise.
UniProt Q15910: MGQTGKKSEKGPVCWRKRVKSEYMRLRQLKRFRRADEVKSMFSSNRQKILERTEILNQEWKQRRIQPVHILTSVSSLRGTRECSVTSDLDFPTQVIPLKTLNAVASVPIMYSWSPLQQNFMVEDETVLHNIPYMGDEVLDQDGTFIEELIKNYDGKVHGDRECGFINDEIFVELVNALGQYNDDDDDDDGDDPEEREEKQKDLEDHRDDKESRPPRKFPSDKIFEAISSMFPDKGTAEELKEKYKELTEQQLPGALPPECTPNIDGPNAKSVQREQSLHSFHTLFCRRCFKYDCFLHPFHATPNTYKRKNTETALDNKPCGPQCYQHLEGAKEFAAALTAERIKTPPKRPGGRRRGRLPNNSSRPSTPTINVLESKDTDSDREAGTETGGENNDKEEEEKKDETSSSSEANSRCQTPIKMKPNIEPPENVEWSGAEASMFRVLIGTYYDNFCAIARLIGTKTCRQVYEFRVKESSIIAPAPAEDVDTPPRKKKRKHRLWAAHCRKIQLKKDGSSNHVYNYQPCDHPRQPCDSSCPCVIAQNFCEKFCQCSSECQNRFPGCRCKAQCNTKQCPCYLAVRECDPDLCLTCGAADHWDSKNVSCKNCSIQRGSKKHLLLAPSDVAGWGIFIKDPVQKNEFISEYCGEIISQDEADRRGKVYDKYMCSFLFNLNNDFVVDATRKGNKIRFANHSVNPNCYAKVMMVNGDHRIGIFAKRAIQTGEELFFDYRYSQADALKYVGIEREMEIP
UniProt Q9UPT9: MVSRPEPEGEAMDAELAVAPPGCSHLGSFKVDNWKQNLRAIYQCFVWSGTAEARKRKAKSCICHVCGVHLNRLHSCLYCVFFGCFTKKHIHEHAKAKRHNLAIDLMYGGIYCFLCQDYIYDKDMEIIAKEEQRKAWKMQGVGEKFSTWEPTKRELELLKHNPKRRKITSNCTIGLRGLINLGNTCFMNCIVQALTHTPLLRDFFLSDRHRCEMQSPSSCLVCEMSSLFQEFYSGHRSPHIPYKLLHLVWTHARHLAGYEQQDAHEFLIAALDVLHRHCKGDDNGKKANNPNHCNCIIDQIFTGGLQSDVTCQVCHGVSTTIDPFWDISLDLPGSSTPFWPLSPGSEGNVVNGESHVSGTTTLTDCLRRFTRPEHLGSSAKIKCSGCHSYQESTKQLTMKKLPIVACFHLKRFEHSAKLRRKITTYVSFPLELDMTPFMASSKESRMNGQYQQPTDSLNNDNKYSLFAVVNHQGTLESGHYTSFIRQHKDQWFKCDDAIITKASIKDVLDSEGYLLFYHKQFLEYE

USP22 with mutation of the critical cysteines in the zinc finger structure (from UniProt Q9UPT9) (enzyme)
binding: binds

From paper PMC12721901
